Experimental data from patent US9340774B2, “Tumor-initiating cells and methods for using same” (Wyeth LLC, priority 2009, dated 2016).
At least one compound was matched to its structure with a doubt left.

Test system: 87426 primary culture of NSCLC
Assay: Differentiation model of NSCLC primary culture (air-liquid interface with retinoic acid)
Type: cell-based, human

SMILES: CC1=C(/C=C/C(C)=C/C=C/C(C)=C/C(=O)O)C(C)(C)CCC1 [retinoic acid]
- morphology of monolayer cultures (air-liquid interface and 50 nM retinoic acid for 18 days, FIG. 7A): efficiently formed 3D-stratified epithelium
- effect of differentiation on the tumorigenic profile (gene expression) (primary NSCLC culture): partially reverse the tumorigenic profile
